# In US20230037188A1, “TASTEFUL NATURAL SWEETENER AND FLAVOR” (EPC Natural Products Co., Ltd., priority 2018, published 2023):
# Experiment: Sensory analysis (odor, color, taste) of model Maillard reactions in glycerol, buffer or dry conditions
# Format: in vivo, persons
# Design: key to Intensity of Smell: “+” for slight; “++” for moderate; “+++” for very strong
# [1] = after reaction, 10 ml KH2PO4, pH 7.8, 2.5 h, 120° C., glucuronic acid/glucuronolactone study
# [2] = negative controls (no carbohydrate source): 10 ml glycerin/water=9:1, 100° C., 40 minutes
# [3] = Example 6: Glycerin, 10 ml, 100° C., 40 min (time by order of lines)
# [4] = Example 1: 1 ml water + 9 ml Glycerin, 1 h, 100° C.
# [5] = Example 5: 1 ml water + 9 ml Glycerin, 2.0 h, 120° C.
# [6] = Example 6: Glycerin, 10 ml, 100° C., 5 min (time by order of lines)
# [7] = Example 6: Glycerin, 10 ml, 100° C., 10 min (time by order of lines)
# [8] = Example 6: Glycerin, 10 ml, 100° C., 20 min (time by order of lines)
# [9] = before reaction, 10 ml KH2PO4, pH 7.8, glucuronic acid/glucuronolactone study
# [10] = Example 3: 1 ml water + 9 ml Glycerin, 0.67 h, 100° C.
# [11] = Example 7: Glycerin, 10 ml, 1 h, 120° C.
# [12] = after reaction, 10 ml KH2PO4, pH 7.8, 2.5 h, 120° C., SG fractions of Example 36
structure (smiles),measurement,setting,value
OC[C@H]1OC(O)[C@H](O)[C@@H](O)[C@@H]1O (stereo partly drawn) [Glu],Color,[1],Deep Yellow
same,Smell,[1],Burnt sugar
same,Taste,[1],Sweet/bitter
N[C@@H](Cc1c[nH]c2ccccc12)C(=O)O [20.42 mg Try],Color,[2],Slightly Yellow
same,Smell,[2],Unpleasant (fecal)
same,Taste,[2],Slightly sweet
OC1OC[C@@H](O)[C@H](O)[C@H]1O (stereo partly drawn) [10 mmol Xyl],Color,[3],Slightly Yellow
same,Smell,[3],Slightly Popcorn
OC1OC[C@@H](O)[C@H](O)[C@H]1O (stereo partly drawn) [167 mMol Xyl],Color,[4],No color
same,Smell,[4],neutral/meat
same,Taste,[4],Sweet
O=C(O)[C@H](O)[C@@H](O)[C@H](O)[C@H](O)CO [0.1 mMol Gluc Acid],Color,[5],Almost black
same,Intensity of Smell,[5],+++
same,Smell,[5],burnt bread
same,Taste,[5],Bitter
NCCCC[C@H](N)C(=O)O [14.7 mg Lys],Color,[2],brown
same,Smell,[2],Popcorn
same,Taste,[2],Slightly sweet
N[C@@H](CC(=O)O)C(=O)O [13.3 mg Asp],Color,[2],No color
same,Smell,[2],Unpleasant (plastic)
same,Taste,[2],Slightly sweet
N[C@@H](Cc1ccccc1)C(=O)O [3.3 mMol Phe],Color,[6],No color
same,Smell,[6],Slightly bloomy
same,Color,[7],No color
same,Smell,[7],flowery/bloomy
same,Color,[8],Slightly Yellow
same,Smell,[8],flowery/bloomy
same,Color,[3],Yellow-slightly brown
same,Smell,[3],flowery/bloomy
O=C1O[C@@H]2[C@@H](O)[C@H](O)O[C@@H]2C1O (stereo partly drawn) [18 mg Glucurolactone],Color,[9],No color
same,Smell,[9],neutral
same,Taste,[9],No taste
O=C[C@H](O)[C@@H](O)[C@H](O)[C@H](O)C(=O)O [18 mg Glucuronic Acid],Color,[9],No color
same,Smell,[9],neutral
same,Taste,[9],No taste
NCCCC[C@H](N)C(=O)O [0.1 mMol Lys],Color,[10],Brown
same,Smell,[10],Popcorn
same,Taste,[10],Sweet
OC1OC[C@@H](O)[C@H](O)[C@H]1O (stereo partly drawn) [10 mMol Xyl],Color,[11],No color
same,Smell,[11],neutral
O=C[C@H](O)[C@@H](O)[C@H](O)[C@H](O)C(=O)O [Glucuronic Acid],Smell,[1],burnt bread
same,Taste,[1],Bitter
OC[C@H]1OC(O)[C@H](O)[C@@H](O)[C@@H]1O (stereo partly drawn) [10 mMol Glu],Color,[3],Slightly Yellow
same,Smell,[3],Slightly Caramel
N[C@@H](Cc1ccccc1)C(=O)O [16.5 mg Phe],Taste,"after reaction (2.5 h, 120° C.), after dilution 1:20, SG fractions of Example 36",Sweet
same,Color,[12],Slightly
same,Smell,[12],Caramel
same,Smell,"before reaction, 10 ml KH2PO4, pH 7.8, Stevia extract (SG fractions) of Example 36",Neutral
same,Smell,[9],neutral
same,Taste,[9],No taste
same,Taste,"before reaction, after dilution 1:20, SG fractions of Example 36",No taste
